In doi:10.1101/2021.01.05.423837:
Like-named read-outs stand apart in the source and are kept apart here. These are yes or no findings as the source states them, for the method shown. In cells and extracts the contact can be indirect. Some results given as binding are weak or reduced against the parent protein; the word gives no strength. For some assays here: Tags and fused reporters may be left off the sequences shown.

Sequences of proteins named here, by UniProt entry; tags and fusion partners are left off.
UniProt Q92922: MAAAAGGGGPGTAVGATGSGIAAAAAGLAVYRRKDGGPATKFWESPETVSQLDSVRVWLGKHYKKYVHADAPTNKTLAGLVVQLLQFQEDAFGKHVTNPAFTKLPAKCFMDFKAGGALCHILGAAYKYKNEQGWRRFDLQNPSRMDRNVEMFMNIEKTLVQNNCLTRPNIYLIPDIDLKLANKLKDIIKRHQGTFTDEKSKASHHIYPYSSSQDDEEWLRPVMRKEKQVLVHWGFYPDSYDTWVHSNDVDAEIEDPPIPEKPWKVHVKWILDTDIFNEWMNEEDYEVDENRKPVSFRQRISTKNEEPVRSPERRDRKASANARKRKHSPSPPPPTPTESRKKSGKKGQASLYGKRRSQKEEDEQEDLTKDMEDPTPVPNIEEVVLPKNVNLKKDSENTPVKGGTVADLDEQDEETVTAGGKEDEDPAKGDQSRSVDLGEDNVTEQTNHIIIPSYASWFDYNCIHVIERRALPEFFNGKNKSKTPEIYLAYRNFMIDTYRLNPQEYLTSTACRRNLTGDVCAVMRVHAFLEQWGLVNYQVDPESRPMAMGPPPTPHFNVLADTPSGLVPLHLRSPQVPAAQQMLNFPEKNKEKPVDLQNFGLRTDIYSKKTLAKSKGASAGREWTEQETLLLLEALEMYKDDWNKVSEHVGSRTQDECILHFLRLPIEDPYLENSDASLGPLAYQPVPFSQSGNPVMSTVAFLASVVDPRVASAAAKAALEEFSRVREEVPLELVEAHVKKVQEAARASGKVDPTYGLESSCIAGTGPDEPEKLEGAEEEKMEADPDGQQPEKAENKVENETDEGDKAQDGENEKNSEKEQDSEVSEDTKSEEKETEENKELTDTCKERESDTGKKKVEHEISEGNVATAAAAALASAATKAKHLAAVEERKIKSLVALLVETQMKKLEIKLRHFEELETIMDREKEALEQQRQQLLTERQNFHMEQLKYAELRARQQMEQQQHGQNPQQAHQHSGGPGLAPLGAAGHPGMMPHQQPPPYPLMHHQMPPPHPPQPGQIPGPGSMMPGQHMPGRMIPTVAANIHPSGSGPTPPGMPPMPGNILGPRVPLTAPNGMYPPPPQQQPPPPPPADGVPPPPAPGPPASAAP
UniProt P43694: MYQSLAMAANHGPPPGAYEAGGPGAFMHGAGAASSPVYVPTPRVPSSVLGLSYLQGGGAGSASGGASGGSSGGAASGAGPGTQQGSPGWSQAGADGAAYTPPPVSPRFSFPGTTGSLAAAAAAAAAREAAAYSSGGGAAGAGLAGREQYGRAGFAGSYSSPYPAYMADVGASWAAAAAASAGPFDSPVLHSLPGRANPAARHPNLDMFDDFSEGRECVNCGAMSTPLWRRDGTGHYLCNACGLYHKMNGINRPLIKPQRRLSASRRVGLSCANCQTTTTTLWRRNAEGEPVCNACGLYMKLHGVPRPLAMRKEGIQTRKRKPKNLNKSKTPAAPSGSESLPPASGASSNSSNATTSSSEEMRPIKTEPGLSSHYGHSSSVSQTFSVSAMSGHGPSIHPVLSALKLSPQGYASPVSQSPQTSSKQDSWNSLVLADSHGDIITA

Assays:
Experiment in all cases: co-IP
[1] = target: SMARCC1 WT, MYC- or HA-tagged (human) (UniProt Q92922)
GLYR1-MYC WT (human) = target: T1, GLYR1-MYC WT (human) (UniProt Q49A26)
T1 sequence: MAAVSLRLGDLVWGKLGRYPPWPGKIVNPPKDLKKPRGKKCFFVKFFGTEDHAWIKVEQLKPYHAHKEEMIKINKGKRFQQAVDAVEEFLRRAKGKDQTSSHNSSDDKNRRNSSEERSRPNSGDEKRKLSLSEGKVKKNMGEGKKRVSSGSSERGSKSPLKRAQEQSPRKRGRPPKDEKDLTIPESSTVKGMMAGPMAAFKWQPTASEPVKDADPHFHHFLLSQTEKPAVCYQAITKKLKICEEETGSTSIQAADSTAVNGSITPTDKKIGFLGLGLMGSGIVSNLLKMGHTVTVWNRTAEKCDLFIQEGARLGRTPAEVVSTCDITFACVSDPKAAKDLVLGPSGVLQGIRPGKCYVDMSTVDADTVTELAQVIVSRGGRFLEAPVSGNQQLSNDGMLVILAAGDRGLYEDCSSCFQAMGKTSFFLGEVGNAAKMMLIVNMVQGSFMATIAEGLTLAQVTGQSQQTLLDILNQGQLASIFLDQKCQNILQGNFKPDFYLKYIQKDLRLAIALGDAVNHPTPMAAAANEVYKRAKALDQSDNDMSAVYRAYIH

[2] = target: GATA4 (endogenous, human iPSC-derived cardiac progenitors) (human (endogenous in hiPSC-derived cardiac progenitors)) (UniProt P43694)
GFP-GATA4 (human) = GFP-GATA4 (human) (UniProt P43694)
[3] = target: GATA4 (endogenous, human iPSC-derived cardiac progenitors) (human (endogenous in hiPSC-derived cardiac progenitors)) (UniProt P43694); remark: listed apart in the source

Molecule: GATA4 (ectopically expressed in HEK293 cells, tag not told) (from UniProt P43694 1-442)
- binding [1]: binds
- binding (GLYR1-MYC WT (human)): binds

Molecule: SMARCC1 (endogenous, human iPSC-derived cardiac progenitors) (from UniProt Q92922 1-1105)
- binding [2]: binds

B1: GLYR1-MYC WT (protein, UniProt Q49A26 1-553)
chain: T1 sequence
- binding (GFP-GATA4 (human)): binds

B2: GLYR1 (endogenous, human iPSC-derived cardiac progenitors) (protein, UniProt Q49A26 1-553)
chain: T1 sequence
- binding [3]: binds
